Literature values in patent US20130312498A1, “CARDIOVASCULAR DISEASE RISK ASSESSMENT AND TREATMENT BY STEROL AND/OR STANOL MARKERS” (FOUNDATION FOR HEALTH IMPROVEMENT AND TECHNOLOGY, priority 2012, published 2013).

System: intestinal, biliary and plasma phytosterol levels
Conditions: 80 mg dose, statin monotherapy

CC(C)c1c(C(=O)Nc2ccccc2)c(-c2ccccc2)c(-c2ccc(F)cc2)n1CC[C@@H](O)C[C@@H](O)CC(=O)O [atorvastatin]
increase of intestinal, biliary and plasma phytosterol levels (by up-regulating NPC1L1): particularly potent undesirable offender
